About 7,700 (2.3%) of roughly 330,000 compounds were called active. Inconclusive results, whose numbers are uncertain, are shown with a selection of clear calls. Calls follow the shape of the dose curve; as a rule, active = well fitted inhibition curve with a large enough effect; inconclusive = small, poorly fitted or top-dose-only effect, or effect the other way; inactive = flat fitted curve, though single readings scatter. Potencies of inconclusive entries are doubtful fits and often do not repeat.
Test: qHTS screen for small molecules that inhibit ELG1-dependent DNA repair in human embryonic kidney (HEK293T) cells expressing luciferase-tagged ELG1; also: nearly all actives have a fitted effect of over 55% in size
Settings: HEK293T ELG1-luciferase reporter, luminescence, 16 h, DNA damage induced by 5-fluorouridine; activity change, negative = inhibition: at 46.1 µM (top of the series)
Method in brief: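 Luminescence from the luciferase reporter, measured 30 min after ONE-Glo reagent at room temperature, was the read-out. Beforehand, 2,000 cells per well were exposed for 16 hr at 37 °C to 5-fluorouridine together with compound or vehicle.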
In the case of `CC(=O)c1ccc(N2CCN(CC(=O)Nc3ccc4c(c3)OCCO4)CC2)cc1`, the “activity change, negative = inhibition” value is reported as inactive: 5.71%. In the case of `COc1ccc(O)c(C(=O)c2cnn(C(=O)c3cccc(N(C)C)c3)c2)c1`, the Potency is reported as inconclusive: 29.1 µM [activator, single point]. In the case of `CCn1c(C)nc2cc(S(=O)(=O)N3CCCC3)ccc21`, the Potency is reported as inconclusive: 29.1 µM [inhibitor, partial curve, poor fit]. In the case of `O=C(COC(=O)CCc1c[nH]c2ccccc12)Nc1ccccc1C(F)(F)F`, the “activity change, negative = inhibition” value is reported as inactive: 6.92%. For `O=C(NC(=S)Nc1ccc(F)cc1)c1ccc2c(c1)OCCO2`, the Potency was inconclusive: 0.651 µM [activator, partial curve]. For `COC(=O)c1[nH]c2ccccc2c1NC(=O)/C=C/c1ccc2c(c1)OCO2`, the Potency was inconclusive: 10.3 µM [activator, partial curve]. For `Cc1ccc(N(Cc2cc3cc(C)ccc3[nH]c2=O)S(=O)(=O)c2ccccc2)cc1`, the Potency was inconclusive: 20.6 µM [inhibitor, partial curve]. With `COc1cccc(CN(C)C(=O)CCN=C2NS(=O)(=O)c3ccccc32)c1` the Potency was inconclusive: 29.1 µM [activator, single point]. With `CC(=O)Nc1ccc(S(=O)(=O)N(Cc2ccco2)Cc2cc3ccccc3[nH]c2=O)cc1` the Potency was inconclusive: 20.6 µM [inhibitor, partial curve]. With `Cc1oc(-c2cccc(Cl)c2)nc1CS(=O)(=O)CC(=O)NC1CC1` the “activity change, negative = inhibition” value was inactive: 12.6%. With `CCOc1cc(C=C(C(=O)OC)C(=O)OC)ccc1OCc1ccc([N+](=O)[O-])cc1` the Potency was active: 20.6 µM. In the case of `Cc1cccc(NC(=O)C(C)N2C(=O)C3C4CC(C(Br)C4Br)C3C2=O)c1` (stereo not given), the Potency is reported as inconclusive: 7.08 µM [activator, partial curve, poor fit]. With `Cc1ccc2c(C)nc(SC(C(=O)c3ccccc3)c3ccccc3)nc2c1` (stereo not given) the “activity change, negative = inhibition” value was inactive: 12.4%. With `Clc1ccccc1-c1ccc2ncnc(NCc3cccnc3)c2c1` the “activity change, negative = inhibition” value was inactive: 11.3%. For `COc1c(F)c(F)cc2c(=O)c(C(=O)O)cn(C3CC3)c12`, the Potency was inconclusive: 1.83 µM [inhibitor, full curve, poor fit]. With `Cc1ccc(C(=O)NCCSc2ccc(Cl)cc2)cc1[N+](=O)[O-]` the Potency was inconclusive: 1.84 µM [inhibitor, partial curve, poor fit]. With `COC(=O)c1nc2n(n1)C(c1ccccc1OC)C1=C(CCCC1=O)N2` (stereo not given) the Potency was inconclusive: 13 µM [activator, single point]. In the case of `CCCCOc1ccc(C(O)C(CN2CCCCC2)c2ccccc2)cc1` (stereo not given), the “activity change, negative = inhibition” value is reported as inactive: -2.52%. With `O=C(Cc1c(F)cccc1Cl)NCc1cccnc1` the Potency was inconclusive: 20.6 µM [activator, partial curve, poor fit]. With `COc1cccc(/C=N/Nc2ccc(Cl)nn2)c1` the Potency was inconclusive: 8.2 µM [activator, partial curve]. With `O=C1C=C(Nc2ccccc2)c2ccccc2C1=O` the Potency was active: 9.2 µM. In the case of `COC(=O)CSC1=C(C#N)C(c2cccc(OC)c2)CC(=O)N1` (stereo not given), the “activity change, negative = inhibition” value is reported as inactive: -7.85%. With `CCc1nc2ccccc2c(C(=O)OCC(=O)N2CC(C)OC(C)C2)c1C` (stereo not given) the Potency was inconclusive: 14.6 µM [inhibitor, partial curve, poor fit]. For `COC(=O)Cn1c(=NC(=O)CSCC(=O)Nc2cc(C)on2)sc2cc(C(=O)OC)ccc21`, the Potency was inconclusive: 2.59 µM [inhibitor, partial curve, poor fit]. With `O=C(C1CCN(c2ncnc3c2nc2n3CCCCC2)CC1)N1CCN(c2ccccc2F)CC1` the Potency was inconclusive: 18.3 µM [inhibitor, partial curve]. With `O=C(O)CCCNC(=O)c1ccccn1` the “activity change, negative = inhibition” value was inactive: 5.81%. In the case of `CC1CCN(C(=O)c2cc(-c3ccco3)on2)CC1`, the Potency is reported as inconclusive: 16.4 µM [activator, partial curve]. In the case of `CC(C)(C)OC(=O)N/N=C\C=C\c1ccc2c(c1)OCO2`, the Potency is reported as inconclusive: 5.17 µM [activator, partial curve]. In the case of `Cc1ccc(CN(Cc2ccco2)C(=S)NCC(=O)NCc2cccnc2)cc1`, the Potency is reported as inconclusive: 29.1 µM [inhibitor, single point]. With `CCn1c(CNC(=O)Cc2ccc(OC)cc2)n[nH]c1=S` the “activity change, negative = inhibition” value was inactive: -1.42%. In the case of `COc1ccc(-c2cc(C(=O)NCc3ccccc3)no2)cc1OC`, the Potency is reported as inconclusive: 29.1 µM [activator, single point]. For `COCCn1nnnc1C(c1cc2cc(C)cc(C)c2[nH]c1=O)N1CCN(c2ccccc2F)CC1` (stereo not given), the “activity change, negative = inhibition” value was inactive: -21.5%. With `CCc1ccc(OC(=O)c2ccn(CC)n2)cc1` the “activity change, negative = inhibition” value was inactive: 12.1%. With `COc1ccc(NC(=O)c2ccc(=O)[nH]c2)cc1S(=O)(=O)N1CCOCC1` the “activity change, negative = inhibition” value was inactive: 15.6%. With `Cc1onc(-c2c(Cl)cccc2Cl)c1C(=O)NNc1ccccc1` the Potency was inconclusive: 29.1 µM [inhibitor, partial curve, poor fit]. With `O=C(Nc1cccc(-c2ccc(N3CCOCC3)nn2)c1)c1ccc(F)cc1F` the Potency was inconclusive: 4.61 µM [activator, partial curve]. With `O=C(Cc1cccs1)Nc1ccc(-c2nnn(CC(=O)N3CCOCC3)n2)cc1` the Potency was inconclusive: 29.1 µM [activator, partial curve, poor fit]. With `COc1ccccc1NC(=O)C(=O)N/N=C/c1ccc([N+](=O)[O-])s1` the “activity change, negative = inhibition” value was inactive: -16.3%. With `COc1ccc(C(C)(C)C)cc1NC(=O)C1C2C=CC(C2)C1C(=O)O` (stereo not given) the “activity change, negative = inhibition” value was inactive: 0.306%. With `Brc1ccc2[nH]c3c(c2c1)CCC3` the Potency was inconclusive: 1.03 µM [inhibitor, partial curve, poor fit]. In the case of `COc1ccccc1NC(=O)CN1C(=O)CC(C)S(=O)(=O)c2ccccc21` (stereo not given), the “activity change, negative = inhibition” value is reported as inactive: 11.8%. With `CCOc1ccccc1N1CCN(C(=O)c2ccc(Cl)c(S(=O)(=O)N3CCCCC3)c2)CC1` the Potency was active: 23.1 µM. In the case of `COC(=O)NCN1C(=O)C2C3C=CC(C3)C2C1=O` (stereo not given), the Potency is reported as inconclusive: 32.6 µM [inhibitor, partial curve, poor fit]. For `O=C(O)CNC(=S)N(Cc1ccccc1F)C1CCCCC1`, the Potency was inconclusive: 29.1 µM [inhibitor, single point]. With `O=C(/C=C1\NC2(CCCC2)Cc2ccccc21)C(=O)N/N=C/c1ccc(O)c(O)c1` the Potency was active: 23.1 µM.
% is scaled to controls: 0 for no effect and ±100 for the full control effect; potency is read from the fitted curve at half-maximal effect.
